# The supplement of paper PMC8728848
# The list shows a part of the results.
# What was measured:
# Test in all cases: glycan array binding signal (z-score within array); higher = stronger binding
# Conditions in all cases: glycan notation: IUPAC condensed, linker removed
# [1] = biological target: Gal(b1-4)GlcNAc(b1-2)[Gal(b1-4)GlcNAc(b1-6)]Man(a1-6)[Gal(b1-4)GlcNAc(b1-2)Man(a1-3)]Man(b1-4)GlcNAc(b1-4)[Fuc(a1-6)]GlcNAc
# Method in brief: (§1)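 Glycan array data were curated from 3228 arrays in the Consortium for Functional Glycomics database and kept only where the protein sequence was available. Glycan names were converted to IUPAC-condensed notation, and columns mapping to the same glycan were averaged. The binding signal is a within-array Z-score, averaged across arrays of the same protein sequence at different concentrations or buffers and across linkers. Negative Z-scores can be read as non-binding.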
# [2] = biological target: Gal(b1-4)GlcNAc(b1-2)[Gal(b1-4)GlcNAc(b1-6)]Man(a1-6)[GlcNAc(b1-4)][Gal(b1-4)GlcNAc(b1-2)Man(a1-3)]Man(b1-4)GlcNAc(b1-4)GlcNAc
# Method in brief: as §1
# [3] = biological target: Gal(b1-4)GlcNAc(b1-2)[Gal(b1-4)GlcNAc(b1-6)]Man(a1-6)[GlcNAc(b1-4)][Gal(b1-4)GlcNAc(b1-2)[Gal(b1-4)GlcNAc(b1-4)]Man(a1-3)]Man(b1-4)GlcNAc(b1-4)[Fuc(a1-6)]GlcNAc
# Method in brief: as §1
# [4] = biological target: Gal(b1-4)GlcNAc(b1-3)Gal(b1-3)GalNAc
# Method in brief: as §1
# [5] = biological target: Gal(b1-4)GlcNAc(b1-3)Gal(b1-3)GlcNAc
# Method in brief: as §1
# [6] = biological target: Gal(b1-4)GlcNAc(b1-3)Gal(b1-4)Glc
# Method in brief: as §1
# [7] = biological target: Gal(b1-4)GlcNAc(b1-3)Gal(b1-4)GlcNAc
# Method in brief: as §1
# [8] = biological target: Gal(b1-4)GlcNAc(b1-3)Gal(b1-4)GlcNAc(b1-2)Man(a1-3)[Gal(b1-4)GlcNAc(b1-3)Gal(b1-4)GlcNAc(b1-2)Man(a1-6)]Man(b1-4)GlcNAc(b1-4)GlcNAc
# Method in brief: as §1
# [9] = biological target: Gal(b1-4)GlcNAc(b1-3)Gal(b1-4)GlcNAc(b1-2)Man(a1-3)[Gal(b1-4)GlcNAc(b1-3)Gal(b1-4)GlcNAc(b1-2)Man(a1-6)]Man(b1-4)GlcNAc(b1-4)[Fuc(a1-6)]GlcNAc
# Method in brief: as §1
# [10] = biological target: Gal(b1-4)GlcNAc(b1-3)Gal(b1-4)GlcNAc(b1-2)[Gal(b1-4)GlcNAc(b1-3)Gal(b1-4)GlcNAc(b1-6)]Man(a1-6)[Gal(b1-4)GlcNAc(b1-3)Gal(b1-4)GlcNAc(b1-2)Man(a1-3)]Man(b1-4)GlcNAc(b1-4)GlcNAc
# Method in brief: as §1
# [11] = biological target: Gal(b1-4)GlcNAc(b1-3)Gal(b1-4)GlcNAc(b1-2)[Gal(b1-4)GlcNAc(b1-3)Gal(b1-4)GlcNAc(b1-6)]Man(a1-6)[Gal(b1-4)GlcNAc(b1-3)Gal(b1-4)GlcNAc(b1-2)Man(a1-3)]Man(b1-4)GlcNAc(b1-4)[Fuc(a1-6)]GlcNAc
# Method in brief: as §1
# [12] = biological target: Gal(b1-4)GlcNAc(b1-3)Gal(b1-4)GlcNAc(b1-3)Gal(b1-4)GlcNAc
# Method in brief: as §1
# [13] = biological target: Gal(b1-4)GlcNAc(b1-3)Gal(b1-4)GlcNAc(b1-3)Gal(b1-4)GlcNAc(b1-2)Man(a1-3)[Gal(b1-4)GlcNAc(b1-3)Gal(b1-4)GlcNAc(b1-3)Gal(b1-4)GlcNAc(b1-2)Man(a1-6)]Man(b1-4)GlcNAc(b1-4)GlcNAc
# Method in brief: as §1
# [14] = biological target: Gal(b1-4)GlcNAc(b1-3)Gal(b1-4)GlcNAc(b1-3)Gal(b1-4)GlcNAc(b1-2)Man(a1-3)[Gal(b1-4)GlcNAc(b1-3)Gal(b1-4)GlcNAc(b1-3)Gal(b1-4)GlcNAc(b1-2)Man(a1-6)]Man(b1-4)GlcNAc(b1-4)[Fuc(a1-6)]GlcNAc
# Method in brief: as §1
# [15] = biological target: Gal(b1-4)GlcNAc(b1-3)Gal(b1-4)GlcNAc(b1-3)Gal(b1-4)GlcNAc(b1-2)[Gal(b1-4)GlcNAc(b1-3)Gal(b1-4)GlcNAc(b1-3)Gal(b1-4)GlcNAc(b1-6)]Man(a1-6)[Gal(b1-4)GlcNAc(b1-3)Gal(b1-4)GlcNAc(b1-3)Gal(b1-4)GlcNAc(b1-2)Man(a1-3)]Man(b1-4)GlcNAc(b1-4)[Fuc(a1-6)]GlcNAc
# Method in brief: as §1
# [16] = biological target: Gal(b1-4)GlcNAc(b1-3)Gal(b1-4)GlcNAc(b1-3)Gal(b1-4)GlcNAc(b1-3)Gal(b1-4)GlcNAc(b1-2)Man(a1-3)[Gal(b1-4)GlcNAc(b1-3)Gal(b1-4)GlcNAc(b1-3)Gal(b1-4)GlcNAc(b1-3)Gal(b1-4)GlcNAc(b1-2)Man(a1-6)]Man(b1-4)GlcNAc(b1-4)GlcNAc
# Method in brief: as §1
# [17] = biological target: Gal(b1-4)GlcNAc(b1-3)Gal(b1-4)GlcNAc(b1-3)Gal(b1-4)GlcNAc(b1-3)Gal(b1-4)GlcNAc(b1-2)Man(a1-3)[Gal(b1-4)GlcNAc(b1-3)Gal(b1-4)GlcNAc(b1-3)Gal(b1-4)GlcNAc(b1-3)Gal(b1-4)GlcNAc(b1-2)Man(a1-6)]Man(b1-4)GlcNAc(b1-4)[Fuc(a1-6)]GlcNAc
# Method in brief: as §1
# [18] = biological target: Gal(b1-4)GlcNAc(b1-3)Gal(b1-4)GlcNAc(b1-3)Gal(b1-4)GlcNAc(b1-3)Gal(b1-4)GlcNAc(b1-2)[Gal(b1-4)GlcNAc(b1-3)Gal(b1-4)GlcNAc(b1-3)Gal(b1-4)GlcNAc(b1-3)Gal(b1-4)GlcNAc(b1-6)]Man(a1-6)[Gal(b1-4)GlcNAc(b1-3)Gal(b1-4)GlcNAc(b1-3)Gal(b1-4)GlcNAc(b1-3)Gal(b1-4)GlcNAc(b1-2)Man(a1-3)]Man(b1-4)GlcNAc(b1-4)[Fuc(a1-6)]GlcNAc
# Method in brief: as §1
# [19] = biological target: Gal(b1-4)GlcNAc(b1-3)Gal(b1-4)GlcNAc(b1-3)Gal(b1-4)GlcNAc(b1-3)Gal(b1-4)GlcNAc(b1-3)Gal(b1-4)GlcNAc(b1-2)Man(a1-3)[Gal(b1-4)GlcNAc(b1-3)Gal(b1-4)GlcNAc(b1-3)Gal(b1-4)GlcNAc(b1-3)Gal(b1-4)GlcNAc(b1-3)Gal(b1-4)GlcNAc(b1-2)Man(a1-6)]Man(b1-4)GlcNAc(b1-4)GlcNAc
# Method in brief: as §1
# [20] = biological target: Gal(b1-4)GlcNAc(b1-3)Gal(b1-4)GlcNAc(b1-3)Gal(b1-4)GlcNAc(b1-3)Gal(b1-4)GlcNAc(b1-3)Gal(b1-4)GlcNAc(b1-2)Man(a1-3)[Gal(b1-4)GlcNAc(b1-3)Gal(b1-4)GlcNAc(b1-3)Gal(b1-4)GlcNAc(b1-3)Gal(b1-4)GlcNAc(b1-3)Gal(b1-4)GlcNAc(b1-2)Man(a1-6)]Man(b1-4)GlcNAc(b1-4)[Fuc(a1-6)]GlcNAc
# Method in brief: as §1
# [21] = biological target: Gal(b1-4)GlcNAc(b1-3)Gal(b1-4)GlcNAc(b1-3)Gal(b1-4)GlcNAc(b1-3)Gal(b1-4)GlcNAc(b1-3)Gal(b1-4)GlcNAc(b1-2)[Gal(b1-4)GlcNAc(b1-3)Gal(b1-4)GlcNAc(b1-3)Gal(b1-4)GlcNAc(b1-3)Gal(b1-4)GlcNAc(b1-3)Gal(b1-4)GlcNAc(b1-6)]Man(a1-6)[Gal(b1-4)GlcNAc(b1-3)Gal(b1-4)GlcNAc(b1-3)Gal(b1-4)GlcNAc(b1-3)Gal(b1-4)GlcNAc(b1-3)Gal(b1-4)GlcNAc(b1-2)Man(a1-3)]Man(b1-4)GlcNAc(b1-4)[Fuc(a1-6)]GlcNAc
# Method in brief: as §1
# [22] = biological target: Gal(b1-4)GlcNAc(b1-3)Gal(b1-4)GlcNAc(b1-3)Gal(b1-4)GlcNAc(b1-3)Gal(b1-4)GlcNAc(b1-3)Gal(b1-4)GlcNAc(b1-3)Gal(b1-4)GlcNAc(b1-2)Man(a1-3)[Gal(b1-4)GlcNAc(b1-3)Gal(b1-4)GlcNAc(b1-3)Gal(b1-4)GlcNAc(b1-3)Gal(b1-4)GlcNAc(b1-3)Gal(b1-4)GlcNAc(b1-3)Gal(b1-4)GlcNAc(b1-2)Man(a1-6)]Man(b1-4)GlcNAc(b1-4)GlcNAc
# Method in brief: as §1
# [23] = biological target: Gal(b1-4)GlcNAc(b1-3)Gal(b1-4)GlcNAc(b1-3)GalNAc
# Method in brief: as §1
# [24] = biological target: Gal(b1-4)GlcNAc(b1-3)Gal(b1-4)GlcNAc(b1-3)[Gal(b1-4)GlcNAc(b1-3)Gal(b1-4)GlcNAc(b1-6)]GalNAc
# Method in brief: as §1
# [25] = biological target: Gal(b1-4)GlcNAc(b1-3)Gal(b1-4)GlcNAc(b1-6)[Gal(b1-3)]GalNAc
# Method in brief: as §1
# [26] = biological target: Gal(b1-4)GlcNAc(b1-3)Gal(b1-4)[Fuc(a1-3)]GlcNAc(b1-3)Gal(b1-4)[Fuc(a1-3)]GlcNAc
# Method in brief: as §1
# [27] = biological target: Gal(b1-4)GlcNAc(b1-3)GalNAc
# Method in brief: as §1
# [28] = biological target: Gal(b1-4)GlcNAc(b1-3)[Fuc(a1-3)GlcNAc(b1-6)]Gal(b1-4)Glc
# Method in brief: as §1
# [29] = biological target: Gal(b1-4)GlcNAc(b1-3)[Gal(b1-4)GlcNAc(b1-6)]Gal(b1-4)GlcNAc
# Method in brief: as §1
# [30] = biological target: Gal(b1-4)GlcNAc(b1-3)[GlcNAc(b1-6)]Gal(b1-4)GlcNAc
# Method in brief: as §1
# [31] = biological target: Gal(b1-4)GlcNAc(b1-6)Gal(b1-4)GlcNAc
# Method in brief: as §1
# [32] = biological target: Gal(b1-4)GlcNAc(b1-6)GalNAc
# Method in brief: as §1
# [33] = biological target: Gal(b1-4)GlcNAc(b1-6)[Gal(b1-3)]GalNAc
# Method in brief: as §1
# [34] = biological target: Gal(b1-4)GlcNAc(b1-6)[Gal(b1-4)GlcNAc(b1-3)]GalNAc
# Method in brief: as §1
# Gal(b1-4)GlcNAc6P = biological target: Gal(b1-4)GlcNAc6P
# Method in brief: as §1
# Gal(b1-6)Gal = biological target: Gal(b1-6)Gal
# Method in brief: as §1
# Gal3S(b1-3)GalNAc = biological target: Gal3S(b1-3)GalNAc
# Method in brief: as §1
# Gal3S(b1-3)GlcNAc = biological target: Gal3S(b1-3)GlcNAc
# Method in brief: as §1
binder,measurement,setting,value
Epa19 (Candida glabrata) (protein) MGSSHHHHHHSSGLVPRGSHMASSKDPTRFPIGCSPQVLKTQPGLAVKLYSYGHPVPGCSYITYQYPDFPRSGYKKERKLADITGVNGKIDIDLKPNDPCRVLTGHLPSNYNYPDTLTYTNFTMILYGYFQPKVTGYHTFNLEADDLLFMNLGAGNAFDCCKAESTLDNFGNYQSYSLWGSDYAKANITVFLVSGVYYPIRLFYVNRDNNAVIDFSFTTEFDKEKVHDFTSYFFSASDGEQCPGSV,glycan array binding signal (z-score),[1],-0.425
same,glycan array binding signal (z-score),[2],-0.388
same,glycan array binding signal (z-score),[3],0.533
same,glycan array binding signal (z-score),[4],-0.47
same,glycan array binding signal (z-score),[5],0.038
same,glycan array binding signal (z-score),[6],0.059
same,glycan array binding signal (z-score),[7],-0.486
same,glycan array binding signal (z-score),[8],2.29
same,glycan array binding signal (z-score),[9],0.186
same,glycan array binding signal (z-score),[10],0.736
same,glycan array binding signal (z-score),[11],0.241
same,glycan array binding signal (z-score),[12],-0.32
same,glycan array binding signal (z-score),[13],0.479
same,glycan array binding signal (z-score),[14],0.256
same,glycan array binding signal (z-score),[15],0.72
same,glycan array binding signal (z-score),[16],-0.168
same,glycan array binding signal (z-score),[17],0.518
same,glycan array binding signal (z-score),[18],0.024
same,glycan array binding signal (z-score),[19],0.415
same,glycan array binding signal (z-score),[20],0.942
same,glycan array binding signal (z-score),[21],-0.151
same,glycan array binding signal (z-score),[22],0.913
same,glycan array binding signal (z-score),[23],0.883
same,glycan array binding signal (z-score),[24],1.4
same,glycan array binding signal (z-score),[25],0.735
same,glycan array binding signal (z-score),[26],-0.534
same,glycan array binding signal (z-score),[27],-0.22
same,glycan array binding signal (z-score),[28],0.024
same,glycan array binding signal (z-score),[29],-0.482
same,glycan array binding signal (z-score),[30],-1.47
same,glycan array binding signal (z-score),[31],-0.361
same,glycan array binding signal (z-score),[32],-0.146
same,glycan array binding signal (z-score),[33],0.35
same,glycan array binding signal (z-score),[34],-0.241
same,glycan array binding signal (z-score),Gal(b1-4)GlcNAc6P,-0.08
same,glycan array binding signal (z-score),Gal(b1-6)Gal,-0.918
same,glycan array binding signal (z-score),Gal3S(b1-3)GalNAc,0.085
same,glycan array binding signal (z-score),Gal3S(b1-3)GlcNAc,-0.194
